Laboratory results: article PMC6925443

Chains of the proteins cited; added tags and fusions are not shown. Lines headed by an entry give the natural chain unless they say otherwise; changes in a name come on top. Residues count along the entry.
UniProt P28799, residues 18-593: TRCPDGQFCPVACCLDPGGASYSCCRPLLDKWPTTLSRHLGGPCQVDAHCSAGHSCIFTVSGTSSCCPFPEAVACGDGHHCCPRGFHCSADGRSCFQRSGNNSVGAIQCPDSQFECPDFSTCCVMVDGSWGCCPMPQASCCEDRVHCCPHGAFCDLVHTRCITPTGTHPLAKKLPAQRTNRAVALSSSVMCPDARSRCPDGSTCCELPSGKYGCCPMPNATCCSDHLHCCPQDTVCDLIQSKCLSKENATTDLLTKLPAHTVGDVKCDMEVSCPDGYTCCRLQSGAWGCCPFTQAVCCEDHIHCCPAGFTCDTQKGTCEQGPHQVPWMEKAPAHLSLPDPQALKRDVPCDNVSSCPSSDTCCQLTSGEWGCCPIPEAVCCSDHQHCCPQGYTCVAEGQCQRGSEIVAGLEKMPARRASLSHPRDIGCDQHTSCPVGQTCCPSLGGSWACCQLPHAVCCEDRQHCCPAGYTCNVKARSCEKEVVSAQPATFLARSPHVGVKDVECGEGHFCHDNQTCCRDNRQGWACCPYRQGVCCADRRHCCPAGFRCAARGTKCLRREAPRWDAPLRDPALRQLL
UniProt P07339: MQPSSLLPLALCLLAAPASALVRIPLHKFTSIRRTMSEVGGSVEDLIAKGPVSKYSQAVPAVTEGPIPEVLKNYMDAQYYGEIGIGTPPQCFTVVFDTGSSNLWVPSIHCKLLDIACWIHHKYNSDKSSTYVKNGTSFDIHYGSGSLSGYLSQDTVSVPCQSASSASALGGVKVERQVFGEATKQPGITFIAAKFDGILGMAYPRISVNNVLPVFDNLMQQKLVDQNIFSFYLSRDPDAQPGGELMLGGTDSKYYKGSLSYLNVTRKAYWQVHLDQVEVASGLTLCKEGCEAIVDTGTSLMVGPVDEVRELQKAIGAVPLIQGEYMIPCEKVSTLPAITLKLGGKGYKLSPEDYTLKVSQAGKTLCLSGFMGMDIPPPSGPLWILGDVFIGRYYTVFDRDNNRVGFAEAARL

Columns and labels:
[1] = target: Progranulin (PGRN) (human (endogenous in brain tissue)) (UniProt P28799); assay: co-IP; RIPA extracts of human middle temporal gyrus (200 ug, centrifuged 14,000 g/30 min); 2 ug goat anti-PGRN or rabbit anti-PSAP on protein G or protein A magnetic beads; 18 h at 4 C; washed three times with RIPA; eluted without reducing agent at 80 C; western blot
[2] = target: T1, Prosaposin (PSAP) (human (endogenous in brain tissue)) (UniProt P07602); assay: as above
T1 sequence: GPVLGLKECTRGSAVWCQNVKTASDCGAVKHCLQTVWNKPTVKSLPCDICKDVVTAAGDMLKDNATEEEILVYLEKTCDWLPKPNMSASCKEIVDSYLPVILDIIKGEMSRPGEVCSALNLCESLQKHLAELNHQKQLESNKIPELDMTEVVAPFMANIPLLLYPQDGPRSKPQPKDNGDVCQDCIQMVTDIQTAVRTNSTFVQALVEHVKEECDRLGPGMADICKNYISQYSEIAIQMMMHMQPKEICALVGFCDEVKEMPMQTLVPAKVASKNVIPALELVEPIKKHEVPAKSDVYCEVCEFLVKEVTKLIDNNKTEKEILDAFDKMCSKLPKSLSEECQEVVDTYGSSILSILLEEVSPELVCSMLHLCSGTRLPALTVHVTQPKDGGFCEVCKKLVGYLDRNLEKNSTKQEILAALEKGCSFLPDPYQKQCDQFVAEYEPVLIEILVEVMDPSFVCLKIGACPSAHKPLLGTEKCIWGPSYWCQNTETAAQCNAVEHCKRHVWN

Cathepsin D (from UniProt P07339) (enzyme)
binding [1]: no binding
binding [2]: binds weakly

These are yes or no findings as the source states them, for the method shown. In cells and extracts the contact can be indirect. For some assays here: Binding calls can cover weak binding; strength is not graded here.
